{"source": "PubChem BioAssay AID493014", "about": "(National Center for Advancing Translational Sciences (NCATS), 2011)", "note": "The list shows a part of the results. Shown are side measurements of this screen, not its main read-out; they come without a call. Most of these compounds were active or inconclusive in the main read-out, so they are no random draw. Potencies come from curve fits of mixed quality, noted in brackets.", "data": [{"assay": "qHTS Assay to Find Inhibitors of Chronic Active B-Cell Receptor Signaling", "conditions": "ABC-DLBCL IkBa-CBG/CBR reporter, luminescence ratio (green luciferase fused to IkBa over red control in TMD8 lymphoma cells), 4 h; measured here: CBR red luminescence, cell number", "how_it_was_run": "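Concentration-response series (up to 46 uM) were applied to TMD8 dual-reporter cells for 4 h at 37C with doxycycline. Green/red ratio, after filter-overlap correction, defined %Activity; red signal alone was normalised to basal cells and zero luminescence.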", "values": [{"smiles": "CC(C)C(=O)Nc1ccc(C(=O)CN2C(=O)NC3(CCOc4ccccc43)C2=O)cc1", "note": "(configuration not stated)", "AC50": "0.206 µM [rising, full curve, poor fit]"}, {"smiles": "O=C(CCCCCN1C(=O)CCC1=O)Nc1ccc2c(c1)OCCO2", "AC50": "1.64 µM [rising, partial curve, poor fit]"}, {"smiles": "Cn1c(=O)[nH]c(=O)c2c1nc(N1CCCCCC1)n2CC(N)=O", "AC50": "9.2 µM [rising, partial curve, poor fit]"}, {"smiles": "COc1cc(-c2nc(-c3ccccc3)c(-c3cccs3)[nH]2)cc(OC)c1O", "AC50": "29.1 µM [falling, single point]"}, {"smiles": "CC1CCC(N2CC(=O)N(C3CCCC3)C(c3ccc(Cl)cc3)C2=O)CC1", "note": "(configuration not stated)", "AC50": "35.5 µM [rising, single point]"}, {"smiles": "CC(=O)Nc1cccc(/C(C)=N/NC(=O)c2cc(-c3ccncc3)nc3ccccc23)c1", "AC50": "5.62 µM [rising, full curve, poor fit]"}, {"smiles": "Nc1nc(-c2ccccc2)c(N=Nc2cccnc2)s1", "AC50": "0.708 µM [falling, full curve]"}, {"smiles": "COc1cccc(/C=C/c2n[nH]c(=O)c(C#N)c2C)c1", "AC50": "17.8 µM [falling, partial curve, poor fit]"}, {"smiles": "COc1ccccc1C1C2=C(N=c3s/c(=C/c4cccc(OCC(=O)O)c4)c(=O)n31)c1ccccc1CC2", "note": "(configuration not stated)", "AC50": "25.9 µM [falling, single point]"}, {"smiles": "O=C1CS/C(=C\\[N+](=O)[O-])N1c1ccc(OC(F)(F)F)cc1", "AC50": "17.8 µM [falling, partial curve, poor fit]"}, {"smiles": "Cc1cnc(NC(=O)Nc2ccc(OCc3ccccc3)cc2)c(Br)c1", "AC50": "17.8 µM [falling, partial curve, poor fit]"}, {"smiles": "COc1ccc(CNC(=O)CCCNS(=O)(=O)c2cccc3nonc23)cc1", "AC50": "18.4 µM [rising, partial curve, poor fit]"}, {"smiles": "Cc1ccc(C(=O)Nc2cccc(C(=O)N3CCN(C)CC3)c2)cc1", "AC50": "2.82 µM [falling, partial curve, poor fit]"}, {"smiles": "CN(C)c1ccc(/C=N/NC(=O)c2ccc3c(c2)OCCO3)cc1", "AC50": "4.47 µM [falling, full curve]"}, {"smiles": "Cc1ccc(S(=O)(=O)N(CC(O)CN2C(=O)NC(C)(C)C2=O)c2cccc([N+](=O)[O-])c2)cc1", "note": "(configuration not stated)", "AC50": "35.5 µM [falling, single point]"}, {"smiles": "COC(C[C@H]1O[C@H]1[C@H](O)[C@@H](C)OCc1ccccc1)OC", "AC50": "6.31 µM [rising, full curve, poor fit]"}, {"smiles": "CCOC(=O)c1c(NC(=O)CCN2C(=O)c3ccccc3C2=O)sc(C(=O)OC(C)C)c1C", "AC50": "3.55 µM [falling, single point]"}]}]}
